The whole screen tested about 52,000 sequences, of which about 210 (0.4%) were called active.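 How the source made its calls: active means gene whose silencing raises cell survival under the drug, median off-target-corrected z-score across its silencing RNAs 2 or more; inactive means the rest.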 This is one part of the list.

A short description of this assay: Resistance to Poly (ADP-Ribose) Polymerase inhibitor: Gene Identification via Genome-wide siRNA Screen. The note with it: mouse BRCA2 R2336H ES cells, olaparib, CellTiter-Glo viability; hits give high values. The essentials: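 Mouse BRCA2 R2336H ES cells were reverse-transfected with siRNA (20 nM final), treated at 48 h with 500 nM olaparib, and read by CellTiter-Glo after 72 h. Scores: MAD-based z per siRNA, median per gene, seed off-target correction.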
(In general: Cellular ATP, detected with luciferase, serves as a proxy for viable cell number.)
On to GCGAUCUAGUGAAGAUGUGTT against Rapgef4, for which the z-score was inactive: -0.00169.

For GGAGAAAUUAGAGUGAUCGTT against Pcdha1, the z-score was inactive: -2.02. Then “GGAGUCAGAAUGUAUAAAUTT against C530015C18”, with inactive: 0.841. On to GGCAGACAAUGCAGUUAACTT against Atp8a2, for which the z-score was inactive: -0.551.

In the case of GCUAACUGAUACAUUAGAATT against Trim59, the z-score is inactive: 0.479.

For the sequence GGGCUUGUCUAGCCAUGCATT against Wiz, the z-score was inactive: 0.805. With GGCAGUUUUGGGAUUGUUUTT against E4f1, the z-score is inactive: 1.16. In the case of GCUAACCAUAAGUCUGUUUTT against Trim16, the z-score was inactive: -0.103. Then “GGCGGAAAAAGGAUUUCAATT against A230042K10Rik”, with inactive: -0.774; and GGAGGUUGGGAUGAAUUAUTT against Rab6b, with inactive: 0.998. Turning to CGGCCAACUUGCUCAAUGATT against Cnnm2, the z-score was inactive: -0.767. Then GAUUGGCAAUUGUGGCCAUTT against Defb4, with inactive: -0.36. The same measure for GAUUGUGUCGUCCAUUACATT against Tuba3: inactive: -1.62; for “GGAAAAGAGACAGAAUUUGTT against 2610103M17Rik”: inactive: 1.33; for “GCACGUAUACUAAAAUUGGTT against 2310014L17Rik”: inactive: -0.129. Then GAGAACUGCUACGACUCUGTT against Coro2a, with inactive: 0.335; and GGGAGAUUCUAUGAGGACUTT against Depdc5, with inactive: 0.365; and CCCAAUACAUAUGUUAAGUTT against Syt14, with inactive: 1.05. Turning to GGACUCCUUCCACCACAAUTT against Amid, the z-score is inactive: 0.0312. The same measure for “GGUAACAUGGCAGAUUUUATT against 2810003C17Rik”: inactive: 0.782. With GGACAGCCGUGUAGUAACCTT against Cpne1, the z-score was inactive: -0.577. Then GGUAUGACUUGCUCUUUAUTT against Rnpep, with inactive: 0.858; and GCUCUUCCGAUUAAUGCAGTT against Gabra6, with inactive: 0.459; and “GCGAUCCACGAGAAACAGATT against 3110038B19Rik”, with inactive: 0.617. Take GGAAUUUCACCUAAAUUGATT against Blzf1: the z-score is inactive: 0.355. On to GGACUUUUUCAAAGGUUUUTT against Eif4g3, for which the z-score was inactive: -1.38. Then “GGUAUUCACAAAGAGAUACTT against D13Ertd275e”, with inactive: 0.596; and GGAAUCGCUAUUUCUGAUATT against Sgk3, with inactive: 0.46. The same measure for GGAUAUUUGUGUUCCUAAGTT against V1ri9: inactive: -0.283; for GCGAUUACACCACAAACCATT against Cth: inactive: -1.64; for CGAGAUUGGAGUCAUGUUUTT against Adcy3: inactive: 1.26. Then GGAACUUCUACAGUCCUCCTT against BC055447, with inactive: 0.621; and GGAGGAGUUGCACCUCAUCTT against Pctk3, with inactive: 0.655; and GGAGUACGACUACUACGGUTT against Sfrp5, with inactive: 2.17. Take GGUACGCAUUCCACAGUUCTT against Tbx10: the z-score was inactive: -0.347. Take “CCUUUACUUCACUCUUAGCTT against Kiaa0298-hp”: the z-score was inactive: 0.134. The same measure for “CCCUCUUUUCGUUUUCUACTT against 1700129C05Rik”: inactive: 0.137; for GCUAUUAGGAAAUGAAAGATT against Ncald: inactive: 1.27; for “GCACAGGACUGAUGCUAAGTT against 9530020G05Rik”: inactive: 1.84. On to CGGACAAGUGUUUUUCGUUTT against Wwox, for which the z-score is inactive: 0.356.

CCGUAGAAAUACCAUAGACTT against Cables1: the z-score was inactive: 1.94.

As to GGUACACCCUAGGAAAGAUTT against Pbxip1, the z-score was inactive: -0.435. Then GGAUAUGCAGUGGAACUAUTT against Heph, with inactive: -0.716. The same measure for GGCAGUUAAUUUCUUUGGATT against Ica1: inactive: 0.513; for GGAUUGCCCUGUGGACAAGTT against Nr4a1: inactive: -0.983; for “GGGUUCAGAGGUCAUCAACTT against 1810054G18Rik”: inactive: -0.296.

GAAAUGUGGAAAGACACUGTT against Crip1: the z-score was inactive: 1.66. As to GUGUGGCUCUUAUGUACCUTT against Olfr427, the z-score was inactive: 0.701. As to GGCAAAGGAUAGUGGACAATT against Clic1, the z-score is inactive: 2.48. The same measure for GUGAGUAGGUAGGAAGCAUTT against Cd200r2: inactive: 0.207; for CACGCAGAUGAUUAAGUUGTT against Olfr1000: inactive: 0.555.

CCUUGCCAAGACAGAAUAUTT against Pramel3: the z-score is inactive: 0.255. Then GGUUUUCAGCUGCAUCAUGTT against Olfr303, with inactive: 1.04.

As to CCUCUGGAUCUACGAGCUGTT against Odf4, the z-score was inactive: -0.535. Then “GCUACUAACCAUCGGCUUCTT against 1700067K01Rik”, with inactive: -1.07. Then “CGGAAACGAAGACUUGAAATT against 9330140K16Rik”, with inactive: 1.08; and GGGAGAGCGAGGAAGAUAATT against Sox9, with inactive: -0.655. Then UCUCAAAGACGAAUAUCAUTT against Olfr875, with inactive: 1.01; and GGCGACGUACCAUCACCUATT against Senp3, with inactive: 0.37.

With GCAUGUUUCUAAACUUAGUTT against Sh3rf2, the z-score is inactive: -0.444. The same measure for CCAUUUUUGCUCAAUUUGCTT against Eif1ay: inactive: -0.333.

GCAAAGUUGAGUGCACUUATT against Scrn1: the z-score was inactive: -0.0844.

Consider GAGCCAAGUACCAUCUAUATT against Olfr389, for which the z-score was inactive: -0.306. Turning to GGUAUGUCUGAUGCAUAGGTT against Mos, the z-score is inactive: 0.526. On to GGAGAAGAUAAAAUGGAUGTT against Ptbp2, for which the z-score is inactive: 0.496. Turning to GGUAUUCUUCUGUCUAUGATT against Olfr1107, the z-score is inactive: -0.814. With CCUGUGGAUCCAUUUGUUCTT against Tex15, the z-score was inactive: -0.494. Consider CCUAGAGUACUAUUAAAAGTT against Srrm2, for which the z-score is inactive: 0.352. GGAAGUACAAUGCAAUCAATT against Obox3: the z-score is inactive: 1.02.

In the case of GGAUUUAACUCCAUUUCAATT against Tlr3, the z-score was inactive: 2.42. The same measure for “GCUUAGCCUCGGAAUGUGGTT against 1810073E21Rik”: inactive: -0.22. The same measure for GGCCAAGAUUAGAUUGCUUTT against Senp2: inactive: -1.26; for CCAAGUCCUUCAUCGAAUATT against Kif1a: inactive: 0.139. The same measure for GGACUUCAUCUCCAAACGCTT against Snag1: inactive: -0.428; for GGAUCACCCAUACAGGAACTT against Pla2g2f: inactive: 0.764. As for GGACAUUGAGGAUUAUGUCTT against Thrap4, the z-score is inactive: 1.03. For CCAUCAUGAACAGCCAGCUTT against Olfr463, the z-score was inactive: -1.63. Regarding GGAAGACAAUGGUGUGAAATT against Pgm3, the z-score is inactive: 0.499. The same measure for GGCUAUUGUUGGUAGAACUTT against Dek: inactive: 0.532; for “GCUUGGAUAUACAGAUUAATT against A030001H23Rik”: inactive: 0.631; for GCUAAUGGUCCAUUGAUAUTT against Btn2: inactive: -0.513. The same measure for CCAUUAUAGAUCGUCAAUATT against Nalp9c: inactive: -0.316; for GGAGACGACUCCAUUCACATT against Thbs3: inactive: -0.714; for GGGAUCUUACAUGCCACCATT against Olfr1231: inactive: 0.567. The same measure for GGACCUUGAGAAAGUAGUCTT against Ms4a10: inactive: -0.411; for GGGAGCAGCGAGAUGAAUUTT against Tmem16b: inactive: -0.779. Turning to GGACAAAAGAUGAAUGCUCTT against Msln, the z-score was inactive: 1.33. Turning to GGACUUUGUCAACCAUGUCTT against Fbxl5, the z-score is inactive: 0.453. On to “GGUGAUUUGAACUGUGAAATT against 1810020E01Rik”, for which the z-score was inactive: -2.15.

For the sequence CCCUAACAUCUCUUUGUUGTT against Slc15a3, the z-score was inactive: 0.559. Then “GCCGAUCCAUUUUUGGCUCTT against B930074I24”, with inactive: 1.31; and GGUUGAAACGAGUUUUGAATT against Zbtb5, with inactive: -1.01; and “GGUGGUGCAGGGAUUACAATT against 2510004L01Rik”, with inactive: 0.428. Then GGUCAUUCAGUGGUGCACCTT against Skp1a, with inactive: -0.0512; and GCAAAACUGUGUCAGUAUCTT against Slco5a1, with inactive: -0.732; and GGCCCUGGUUUCAUUAGGATT against Gab3, with inactive: 0.309. The same measure for GGGUCUUGCCUACUUGCAUTT against Map4k5: inactive: 0.574; for “GCCAAUGUCGGAAAAAAUUTT against 4932411G14Rik”: inactive: -1.13. On to CCUGGUACAAGAGGAGUUUTT against Myg1, for which the z-score is inactive: 0.392. Then GGACAACUUCUUCAUUGAGTT against Slc8a2, with inactive: -0.576; and GGGUUUGGAGUUUGAUUUATT against Hrasls3, with inactive: 0.583.

Turning to AACGUAAUUAGCGUGAAUUTT against Cyp2j11, the z-score is inactive: 0.219. With “CCUAAUUUGAUCCUUCGAATT against 4930488P06Rik”, the z-score is inactive: -0.173.

For the sequence GGUGCAGUUGAAAGAACUCTT against Hoxa13, the z-score is inactive: 0.607.

(Values after PubChem BioAssay AID1347423 (Functional Genomics Laboratory (NCATS/FGL), 2020).)
